These are yes or no findings as the source states them, for the method shown. Some binding calls cover weakened binding; strength is not graded here. Where a sequence is shown, tags or fusion partners need not be part of it.
Columns and labels:
Assay in all cases: BLI
[1] = target: T1, human VISTA-Fc H2A mutant (histidines 153-155 replaced by alanine) (human) (UniProt Q9H7M9)
T1 sequence: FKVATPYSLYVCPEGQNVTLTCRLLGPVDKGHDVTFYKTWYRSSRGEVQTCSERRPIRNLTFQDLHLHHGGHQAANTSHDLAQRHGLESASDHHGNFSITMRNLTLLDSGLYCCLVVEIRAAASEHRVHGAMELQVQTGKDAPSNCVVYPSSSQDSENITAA

[2] = target: T2, human VISTA-Fc H2D mutant (histidines 153-155 replaced by aspartic acid) (human) (UniProt Q9H7M9)
T2 sequence: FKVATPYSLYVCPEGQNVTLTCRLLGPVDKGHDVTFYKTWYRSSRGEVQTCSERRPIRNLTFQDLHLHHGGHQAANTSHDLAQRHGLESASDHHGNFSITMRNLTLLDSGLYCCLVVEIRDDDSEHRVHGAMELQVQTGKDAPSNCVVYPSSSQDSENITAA

[3] = target: T3, human VISTA-Fc H2R mutant (histidines 153-155 replaced by arginine) (human) (UniProt Q9H7M9)
T3 sequence: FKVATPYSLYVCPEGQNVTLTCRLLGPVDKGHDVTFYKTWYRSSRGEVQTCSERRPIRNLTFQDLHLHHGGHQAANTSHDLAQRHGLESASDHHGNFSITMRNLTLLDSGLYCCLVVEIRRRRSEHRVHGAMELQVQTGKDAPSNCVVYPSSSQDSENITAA

binding [1]: binds
binding [2]: binds
binding [3]: binds
B1: VISTA.5 (VISTA antibody 1, non-blocking antibody) (antibody, V domains shown)
VH: AVQLQESGPGLVRPSQSLSLTCTVTDYSITSDYAWNWIRQFPGSKLEWLGFIGYSGNTNYNPSLESRISITRHTSKNQFFLHLNSMTTEDTATYYCARSLYGGSHWYFDVWGAGTTVTVSS
VL: DIVLTQSPASLAVSLGQRATISCRGSESVEYYGTILMQWYQQKPGQPPKLLIYGASNVESGVPARFSGSGSGTDFSLNIHPVEEDDIAMYFCQQSRKVPWTFGGGTKLEIK

Reference: patent US20220073617A1
